Experimental data: PubChem BioAssay AID1053208 (Peter MacCallum Cancer Centre, 2014)
Shown is a random part of about 17,000 deposited reagents. Of all reagents, 788 (4.7%) are marked active. 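Calls rest on z-score classes alone; an extra cut-off of viability at most 70% of control was not applied to them.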 Some reagents were tested in more than one well and are listed for each. Not all columns of the deposit are shown.

Test: 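Find knock-downs that sensitise mouse osteosarcoma cells to doxorubicin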 (primary screen)
Cell system: mouse osteosarcoma cells, early-passage culture from an engineered mouse model of fibroblastic bone tumour
Reagent: siRNA pool against mouse genes, 40 nM
Timing: about 120 h (48 h before drug, then 72 h with drug)
Challenge: doxorubicin 100 nM for 72 h, roughly 30-40% inhibitory dose
Measurement: 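Luminescent ATP signal taken as viability with or without 100 nM doxorubicin for 72 h; mean of two wells set against non-targeting siRNA and turned into robust z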
Reading the numbers: viability z-score with doxorubicin: higher = more viable cells under doxorubicin; viability z-score without drug: higher = more viable cells with knock-down alone
Active means: 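a pool counts as active when its viability z-score with doxorubicin is -2 or below and its z-score without drug lies between -2 and 2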

| gene symbol | combined z-score class | viability z-score with doxorubicin | viability z-score without drug | Outcome |
| --- | --- | --- | --- | --- |
| Pick1 | no change with or without drug | 0.9 | 1.18 | inactive |
| Thnsl1 | no change with or without drug | 0 | 0.17 | inactive |
| Chrna2 | no change with or without drug | 0 | 0.34 | inactive |
| Fbxo36 | no change with or without drug | 0 | 0.51 | inactive |

Next part (2 carried over from the part before).
| gene symbol | combined z-score class | viability z-score with doxorubicin | viability z-score without drug | Outcome |
| --- | --- | --- | --- | --- |
| Chrna2 | no change with or without drug | 0 | 0.34 | inactive |
| Fbxo36 | no change with or without drug | 0 | 0.51 | inactive |
| Acad10 | no change with or without drug | -0.79 | 1.01 | inactive |
| Acad10 | no change with or without drug | 0.22 | -1.35 | inactive |
| Cltrn | no change with or without drug | 1.01 | 0.84 | inactive |
| Ncoa6 | high cell count with doxorubicin only | 2.02 | 1.52 | inactive |
| D030074E01RIK | no change with or without drug | 1.12 | -0.17 | inactive |
| Daam2 | high cell count without drug only | -0.79 | 2.02 | inactive |
| Zfp629 | no change with or without drug | -0.67 | -1.85 | inactive |
| Popdc3 | no change with or without drug | -0.45 | 0.34 | inactive |
| C130023O10Rik | no change with or without drug | -0.34 | -0.17 | inactive |
